The list is a part of this screen's results and no random one: it is rich in T/C values a quarter to a half above the control, in often repeated tests (any T/C) and in doses without a T/C. Further doses and runs are listed elsewhere. T/C is the treated group as % of the vehicle group. Some doses have a count of surviving animals in place of a T/C: the source files T/C as zero there, which appears to mark a toxic dose or a test without result, not a measured value. Some survivor counts are full or nearly so, which does not show that the dose was tolerated: survival well below the control is almost never listed, so the zero probably covers shortened survival too. Counts of survivors are from the toxicity check (mostly the fifth day) where no day follows; animals may have died later. Schedules are NCI's codes, read here as Q, the interval in days (D) or hours (H), X, the number of doses. Marks such as (2×) stand for listed records that agree. Some entries hold several experiments; their values stand side by side, smallest first. Some schedules carry Z or #; the key to these is not given. For survival time, this PubChem deposit counts one and a half times the control or more as active, and values a quarter to a half above the control carry no call in these data; other NCI protocols may use other cut-offs.

This test deals with L1210 leukemia ip in BDF1 mice, survival T/C. Description: NCI In Vivo Anticancer Drug Screen. Data for tumor model L1210 Leukemia (intraperitoneal) in B6D2F1 (BDF1) mice. As to conditions: T/C endpoint: mean survival time, higher T/C = longer survival.
Where [1] appears, read: dose: 200.0 mg/kg/injection, schedule: Q04DX003 (ip), vehicle: saline with Tween-80.
Setting [2] is: dose: 400.0 mg/kg/injection, schedule: Q04DX003 (ip), vehicle: saline with Tween-80.
The mark [3] stands for this setting: dose: 400.0 mg/kg/injection, schedule: Q01DX001 (ip), vehicle: saline with Tween-80.
The mark [4] stands for this setting: dose: 200.0 mg/kg/injection, schedule: Q01DX001 (ip), vehicle: carboxymethylcellulose (CMC).
[5] abbreviates: dose: 400.0 mg/kg/injection, schedule: Q01DX001 (ip), vehicle: carboxymethylcellulose (CMC).
Setting [6] is: dose: 400.0 mg/kg/injection, schedule: Q01DX001 (ip), vehicle: other.
Setting [7] is: dose: 100.0 mg/kg/injection, schedule: Q01DX001 (ip), vehicle: carboxymethylcellulose (CMC).
Setting [8] is: dose: 25.0 mg/kg/injection, schedule: Q01DX009 (ip), vehicle: saline.
[9] abbreviates: dose: 50.0 mg/kg/injection, schedule: Q01DX009 (ip), vehicle: saline.
Setting [10] is: dose: 100.0 mg/kg/injection, schedule: Q01DX009 (ip), vehicle: saline.
Where [11] appears, read: dose: 200.0 mg/kg/injection, schedule: Q04DX002 (ip), vehicle: saline.
Where [12] appears, read: dose: 400.0 mg/kg/injection, schedule: Q04DX002 (ip), vehicle: saline.

Regarding `O=C(Nc1ccc(Cl)cc1)Nc1ccccc1F`, the survivor count (dose: 100.0 mg/kg/injection, schedule: Q04DX003 (ip), vehicle: saline with Tween-80) is on record as 6 of 6.

As to `O=C(O)CCc1cccc(O)c1`, the survivor count was 3 of 3 (dose: 100.0 mg/kg/injection, schedule: Q04DX002 (ip), vehicle: Klucel (hydroxypropylcellulose) (HPC)); 3 of 3 (dose: 200.0 mg/kg/injection, schedule: Q04DX002 (ip), vehicle: Klucel (hydroxypropylcellulose) (HPC)); 2 of 3 (dose: 400.0 mg/kg/injection, schedule: Q04DX002 (ip), vehicle: Klucel (hydroxypropylcellulose) (HPC)).

Regarding `c1ccc(C2OC3(CCCCC3)C[N+]23CCCC3)cc1` (stereo not drawn), the survivor count was 3 of 6 (dose: 100.0 mg/kg/injection, schedule: Q01DX009 (ip), vehicle: saline with Tween-80); 0 of 6 under setting [1]; 0 of 6 under setting [2].

Turning to `CC(C)/C=N/N=C(N)N`, the survivor count (dose: 480.0 mg/kg/injection, schedule: Q01DX Z (oral), vehicle: saline) was 3 of 6 and the survivor count (dose: 960.0 mg/kg/injection, schedule: Q01DX Z (oral), vehicle: saline) is on record as 2 of 6.

In the case of `c1ccc(-c2cc(-c3ccccc3)n(-c3ccccc3)c2)cc1`, the survivor count under setting [3] is recorded as 6 of 6.

Take `O=C1CCCC(=O)NNC(=O)Nc2ccc(cc2)-c2ccc(cc2)NC(=O)NN1`: the survivor count (dose: 200.0 mg/kg/injection, schedule: Q01DX001 (ip), vehicle: saline) is recorded as 4 of 4.

Consider `C=C1C(=O)O[C@H]2C[C@@H](C)[C@@H]3CC(=O)OC[C@@]3(C)CC12` (stereo partly drawn), for which the survivor count is 3 of 6 under setting [1] and 0 of 6 under setting [2].

Turning to `C=CCC(O)C=C` (stereo not drawn), the survivor count runs as follows: under setting [4], 1 of 4; under setting [5], 0 of 4.

`O=C(O)CCCCCN1C(=O)c2cccc([N+](=O)[O-])c2C1=O`: the survivor count under setting [3] was 6 of 6.

For `CCCCCCCCCCCCCCCCCC(=O)N/N=C/CCc1ccccc1`, the survivor count reads like this: (dose: 200.0 mg/kg/injection, schedule: Q01DX009 (ip), vehicle: saline with Tween-80) 6 of 6; (dose: 400.0 mg/kg/injection, schedule: Q01DX009 (ip), vehicle: saline with Tween-80) 6 of 6.

In the case of `CN(N=Nc1ccccc1C(=O)NN)C1CCCCC1`, the survivor count (dose: 400.0 mg/kg/injection, schedule: Q01DX009 (ip), vehicle: other) is reported as 0 of 6.

As for `C1CCN(c2c3c(nc4nnnn24)CCC3)CC1`, under setting [6], the survivor count was 0 of 6.

Take `O=C(Nc1ccc(C2=NCCN2)cc1)c1cc(Cl)cc(C(=O)Nc2ccc(C3=NCCN3)cc2)c1`: the T/C reads like this: (dose: 210.0 mg/kg/injection, schedule: Q01DX Z (ip), vehicle: methylcellulose (MC)) 126 % of control; (dose: 315.0 mg/kg/injection, schedule: Q01DX Z (ip), vehicle: methylcellulose (MC)) 138 % of control; (dose: 473.0 mg/kg/injection, schedule: Q01DX Z (ip), vehicle: methylcellulose (MC)) 131 % of control.

In the case of `NC(=O)c1ccccc1N=NN(CCF)CCF`, the T/C (dose: 8.0 mg/kg/injection, schedule: Q04DX003 (ip), vehicle: Klucel (hydroxypropylcellulose) (HPC)) was 126 % of control. Further, the survivor count is given as 1 of 6 (dose: 12.5 mg/kg/injection, schedule: Q01DX009 (ip), vehicle: Klucel (hydroxypropylcellulose) (HPC)); 0 of 6 (dose: 18.0 mg/kg/injection, schedule: Q04DX003 (ip), vehicle: Klucel (hydroxypropylcellulose) (HPC)); 0 of 6 (dose: 25.0 mg/kg/injection, schedule: Q01DX009 (ip), vehicle: Klucel (hydroxypropylcellulose) (HPC)); 0 of 6 (dose: 50.0 mg/kg/injection, schedule: Q01DX001 (ip), vehicle: Klucel (hydroxypropylcellulose) (HPC)); 0 of 6 (dose: 100.0 mg/kg/injection, schedule: Q01DX001 (ip), vehicle: other); 0 of 6 (dose: 200.0 mg/kg/injection, schedule: Q01DX001 (ip), vehicle: other). Moreover, the survivor count under setting [6] was 0 of 6.

Turning to `O=C1C(SCCO)=C(SCCO)C(=O)c2[nH]cnc21`, the survivor count (dose: 50.0 mg/kg/injection, schedule: Q01DX001 (ip), vehicle: carboxymethylcellulose (CMC)) is 0 of 4; the survivor count (dose: 80.0 mg/kg/injection, schedule: Q01DX001 (ip), vehicle: carboxymethylcellulose (CMC)) is 2 of 4; the survivor count under setting [7] is on record as 0 of 4; the survivor count under setting [4] was 0 of 4; the survivor count under setting [5] is recorded as 0 of 4.

Turning to `CCCN(CCC)C(=O)CCl`, the survivor count (dose: 400.0 mg/kg/injection, schedule: Q01DX001 (ip), vehicle: saline) is given as 0 of 4.

For `CC(C)OP(=O)(CP(=O)(OC(C)C)OC(C)C)OC(C)C`, under “dose: 400.0 mg/kg/injection, schedule: Q01DX009 (ip), vehicle: saline”, the survivor count is 5 of 6.

For the molecule `OCC1OC([Se][Se]C2OC(CO)C(O)C(O)C2O)C(O)C(O)C1O` (stereo not drawn), the survivor count runs as follows: under setting [8], 5 of 6; under setting [9], 3 of 6; under setting [10], 0 of 6; under setting [11], 2 of 3; under setting [12], 1 of 3.

Take `COc1ccc(OC)c2c1C=CCC=C2`: where the note is “dose: 400.0 mg/kg/injection, schedule: Q04DX003 (ip), vehicle: acetone”, the survivor count is given as 6 of 6.

`Cc1cc(C)nc(N)c1`: the survivor count runs as follows: (dose: 50.0 mg/kg/injection, schedule: Q04DX002 (ip), vehicle: saline) 0 of 3; (dose: 100.0 mg/kg/injection, schedule: Q04DX002 (ip), vehicle: saline) 0 of 3; under setting [11], 0 of 3; under setting [12], 0 of 3.

For `C/C(=N/OC(=O)N(C)C)c1ccc(Cl)c(Cl)c1`, the survivor count under setting [6] was 0 of 4.

With `O=C1OC2CC3CC1C2C3` (stereo not drawn), the survivor count is, setting by setting: (dose: 75.0 mg/kg/injection, schedule: Q01DX001 (ip), vehicle: acetone) 1 of 6; (dose: 80.0 mg/kg/injection, schedule: Q01DX001 (ip), vehicle: other) 0 of 6; under setting [7], 1 of 4; (dose: 100.0 mg/kg/injection, schedule: Q04DX003 (ip), vehicle: Klucel (hydroxypropylcellulose) (HPC)) 0 of 6; (dose: 150.0 mg/kg/injection, schedule: Q01DX001 (ip), vehicle: acetone) 0 of 6 and 3 of 6; under setting [4], 0 of 4 (2×). Moreover, the survivor count is, setting by setting: (dose: 300.0 mg/kg/injection, schedule: Q01DX001 (ip), vehicle: acetone) 0 of 6 (2×); under setting [5], 0 of 4 (2×).

As to `O=[N+]([O-])c1ccccc1N=C=S`, the survivor count is, setting by setting: (dose: 50.0 mg/kg/injection, schedule: Q01DX009 (ip), vehicle: gum acacia) 3 of 3; (dose: 100.0 mg/kg/injection, schedule: Q01DX009 (ip), vehicle: gum acacia) 3 of 3; (dose: 200.0 mg/kg/injection, schedule: Q04DX002 (ip), vehicle: gum acacia) 3 of 3; (dose: 400.0 mg/kg/injection, schedule: Q04DX002 (ip), vehicle: gum acacia) 0 of 3.

Consider `CN(C)c1ccc(-c2nc3ccccn3c2N)cc1`, for which the survivor count is, setting by setting: under setting [8], 0 of 3; under setting [9], 0 of 3; under setting [10], 0 of 3; (dose: 200.0 mg/kg/injection, schedule: Q01DX009 (ip), vehicle: saline) 0 of 3.

`c1ccc([P+](c2ccccc2)(c2ccccc2)C2CN=NC2)cc1`: the survivor count (dose: 75.0 mg/kg/injection, schedule: Q01DX001 (ip), vehicle: saline) is recorded as 0 of 6; the survivor count (dose: 150.0 mg/kg/injection, schedule: Q01DX001 (ip), vehicle: saline) is 1 of 6; the survivor count (dose: 300.0 mg/kg/injection, schedule: Q01DX001 (ip), vehicle: saline) is given as 0 of 6.
